The other results are listed elsewhere or left out.

The text below walks through data of PMC7819943, “Rice protein-binding microarrays: a tool to detect cis-acting elements near promoter regions in rice”.

The target of this assay is T1, OsSMF1 (Oryza sativa, UniProt Q6ZLB0 1-436).
T1 sequence: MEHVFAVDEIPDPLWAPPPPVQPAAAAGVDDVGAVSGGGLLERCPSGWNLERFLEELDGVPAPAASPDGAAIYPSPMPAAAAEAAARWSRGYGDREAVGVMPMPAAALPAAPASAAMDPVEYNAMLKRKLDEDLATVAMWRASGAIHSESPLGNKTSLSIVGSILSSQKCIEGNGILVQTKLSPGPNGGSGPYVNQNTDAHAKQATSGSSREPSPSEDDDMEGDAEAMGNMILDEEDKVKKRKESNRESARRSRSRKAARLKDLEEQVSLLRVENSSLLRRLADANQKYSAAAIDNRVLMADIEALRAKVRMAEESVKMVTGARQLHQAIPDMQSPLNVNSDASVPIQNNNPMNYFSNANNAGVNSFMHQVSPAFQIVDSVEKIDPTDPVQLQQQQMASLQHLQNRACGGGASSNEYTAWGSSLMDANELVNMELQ
As to the kind of experiment: protein-binding microarray (RPBM); PBS, 2% BSA, 51.3 ng/ul salmon testes DNA, 50 uM zinc acetate, 200 nM TF, 25 C, 1 h; high values mean tight binding. To be noted: protein: recombinant; tags: N-terminal polyhistidine and DsRed monomer fusion (pET32a); chain copies: 2; label: CyDye5-dUTP incorporated in the synthesized complementary strand; 3' TTTTT single-stranded linker to array surface; dsDNA, one strand shown. In outline:
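The binding signal for each feature is its fluorescence intensity in arbitrary units. An Axon 4000B scanner was used to read a custom Agilent array that had been made double-stranded with Cy5-dUTP primer extension, blocked with 2% BSA, incubated at 25 °C for 1 h with 200 nM protein in PBS, 2% BSA, salmon testes DNA and 50 µM zinc acetate, and washed. The protein was an N-terminal polyhistidine–DsRed transcription factor fusion from E. coli BL21-CodonPlus, purified on Ni–NTA.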
In the case of “AGGAGGAGGAGGAAGAGCACGACATCGCCATCTCGGCGTCCGGAGTCACCTAGTGCAG”, the binding signal is 3180 fluorescence intensity (a.u.). The result for “CTCGGCGGTCGGGTCCCTTGTCCACGCACGCCTGCGCAGTCGGAGTCACCTAGTGCAG” reads 5060 fluorescence intensity (a.u.); that for “GCCACGCACCGCGCCGCGCGCGCGCACGCACGCTCCCCTTCGGAGTCACCTAGTGCAG”, 3420 fluorescence intensity (a.u.). For “TCTTCCAACCGGCCAACGCGTCAACCCTAGCGATCATCCACGGAGTCACCTAGTGCAG” the value was 3480 fluorescence intensity (a.u.); for “TCCAAGGATGATTTCAAGCCAAAACAAATATTTGAAGTATCGGAGTCACCTAGTGCAG”, 3730 fluorescence intensity (a.u.).

With “GCTTTTATAGATTCTCGGAAACTAACTACCAACCAGCTGCCGGAGTCACCTAGTGCAG”, the binding signal was 24300 fluorescence intensity (a.u.).

With “ATCAACACATAACTATATGTCTAGGTGTCAGTTTAATAACCGGAGTCACCTAGTGCAG”, the binding signal is 3920 fluorescence intensity (a.u.).

Turning to “CAGGCCGCCGTGGCTTTCCTTGGAGGGTTCCCTGGTGGTGCGGAGTCACCTAGTGCAG”, the binding signal is 3340 fluorescence intensity (a.u.). Consider “CTGCTTCTGCTGCCGCTTGGGTTGGGCCACGCGAGCGGCTCGGAGTCACCTAGTGCAG”, for which the binding signal was 3180 fluorescence intensity (a.u.). The result for “ATAAAGGCGAGATCTAGAAGCGACGACGATGACGGGTCGACGGAGTCACCTAGTGCAG” reads 3860 fluorescence intensity (a.u.); that for “TGTGTTAGATAAGTGTGTCCGAACATAATTAATTTCTTTCCGGAGTCACCTAGTGCAG”, 26100 fluorescence intensity (a.u.); that for “TTCGCTTTGTCCTCACGCACACACGCCTCATGCGTCCGTGCGGAGTCACCTAGTGCAG”, 3410 fluorescence intensity (a.u.). Consider “CTCACGACGGTGCGGCACCAAGAAAGCCAGTGACGTCCCGCGGAGTCACCTAGTGCAG”, for which the binding signal was 3560 fluorescence intensity (a.u.). Turning to “TATATATGGCCTTTGGTCTGCATAGCTGTCCACGTCATCACGGAGTCACCTAGTGCAG”, the binding signal was 42200 fluorescence intensity (a.u.). “CCTCGCGGCACTCCCTCCTCTCTCGCAGACTCGCAGTAGTCGGAGTCACCTAGTGCAG”: the binding signal was 4480 fluorescence intensity (a.u.).

Consider “GCCTCAGCGTGCGTGCGCCCTAGCCAGTCGATCTCCCCGTCGGAGTCACCTAGTGCAG”, for which the binding signal is 6160 fluorescence intensity (a.u.). On to “ATTAATATCTAGTCCCACCTGTCATAGACACACCGCGTCTCGGAGTCACCTAGTGCAG”, for which the binding signal was 4200 fluorescence intensity (a.u.).

Turning to “GACAGTAGCAGCAGTGGACACGTCGATTTCGCAATTCGTGCGGAGTCACCTAGTGCAG”, the binding signal is 5760 fluorescence intensity (a.u.). “CGCACACATGAGCTCATGATGTGAACGTGATGATGGTGCGCGGAGTCACCTAGTGCAG”: the binding signal is 48500 fluorescence intensity (a.u.). Turning to “GTACTCCACAACAACTAAGCAGAAAGCGTACACATGAAAGCGGAGTCACCTAGTGCAG”, the binding signal was 9390 fluorescence intensity (a.u.). Take “AGAGGAAGAAATGACTCATCTGAATCTGAGAGTCGTGTCACGGAGTCACCTAGTGCAG”: the binding signal was 4960 fluorescence intensity (a.u.). For “GGCCGTGACCAAGCGCTGCATCTTGCACACCTTCCGGTCCCGGAGTCACCTAGTGCAG”, the binding signal is 3650 fluorescence intensity (a.u.). Consider “AATGCGTGACTCTCCATTCTTTCACACAAGATTGGCTACACGGAGTCACCTAGTGCAG”, for which the binding signal was 3440 fluorescence intensity (a.u.).

For “CTCGCTGACGTAAACAGGTGACAGCCCGTGCAAGTGCAACCGGAGTCACCTAGTGCAG”, the binding signal was 6000 fluorescence intensity (a.u.). In the case of “AAAAGCCCACCACCACCCAACCCGCCCAACGCCACGTCACCGGAGTCACCTAGTGCAG”, the binding signal is 24800 fluorescence intensity (a.u.). On to “GGATGCACGTCTTGAGTTTCGAGCTGACTTTGACTCAACGCGGAGTCACCTAGTGCAG”, for which the binding signal was 4620 fluorescence intensity (a.u.). On to “GTTTTCTCTTATGACTGTGGATTACGACGTGCACGTTTTCCGGAGTCACCTAGTGCAG”, for which the binding signal is 4490 fluorescence intensity (a.u.).

With “ATCTACACATGCACAAATGTTGCAGCTGATATATGGCTTACGGAGTCACCTAGTGCAG”, the binding signal was 4070 fluorescence intensity (a.u.).

On to “AATAAAGATAAACCCACCAACGTGGAGGAGGCGTAGGCAGCGGAGTCACCTAGTGCAG”, for which the binding signal was 5860 fluorescence intensity (a.u.).

With “GAGCTTAAGGTAGGGAGACCTGAGCTGAGAAGAGAAAGTCCGGAGTCACCTAGTGCAG”, the binding signal is 3280 fluorescence intensity (a.u.). Regarding “ACGGATTATCCGCCAAACATTACATCGGATAATCCGATTACGGAGTCACCTAGTGCAG”, the binding signal was 15500 fluorescence intensity (a.u.). In the case of “CACACCTGAACGCCGGATAAAAGTGAACCCTGTTTTGTGCCGGAGTCACCTAGTGCAG”, the binding signal is 3460 fluorescence intensity (a.u.).

On to “CCCTCCACCTTGCAACCTCACGCACTGATCCTACTCGGATCGGAGTCACCTAGTGCAG”, for which the binding signal was 3190 fluorescence intensity (a.u.).

As for “CAAATATATTATCAAAATATATTCAATGCTAAATTTAATGCGGAGTCACCTAGTGCAG”, the binding signal is 5300 fluorescence intensity (a.u.). With “ACTACAGCCAAGTGCGTGACGAGGCGTTCGTCACCGTGTGCGGAGTCACCTAGTGCAG”, the binding signal is 4720 fluorescence intensity (a.u.). For “AGATTTGGAGTATAAATAAACAGAGAGCGATGGAGCCGGTCGGAGTCACCTAGTGCAG” the value was 3340 fluorescence intensity (a.u.). For “TCATGACACTTCGCGGTGGGTTGCGCCTCCACGCACGCACCGGAGTCACCTAGTGCAG”, the binding signal is 24600 fluorescence intensity (a.u.). Take “TCCTCCCTCCCTCCCGCCGCGTCCCGCCACTCCCGGCTGACGGAGTCACCTAGTGCAG”: the binding signal is 3190 fluorescence intensity (a.u.).

Regarding “ACGACAGTAGAGCTTAGACCAGCAAACCAATCATGCATCACGGAGTCACCTAGTGCAG”, the binding signal was 30600 fluorescence intensity (a.u.). On to “CCCAGTTCCATTCCGAGTTTATGTGTTCGTCACCATCACCCGGAGTCACCTAGTGCAG”, for which the binding signal was 3540 fluorescence intensity (a.u.). Turning to “CTTGTTCAGAATGATGCCACTTTAAATCATATCACTTTTGCGGAGTCACCTAGTGCAG”, the binding signal is 3780 fluorescence intensity (a.u.). The result for “GGATGGCGTCTCCTGCGACGCCATCACCGGCCGCGTCACCCGGAGTCACCTAGTGCAG” reads 17400 fluorescence intensity (a.u.).
